Measurements published in PMC8339009.

Protein sequences, listed by entry. Tags and fused reporters are not part of them.
UniProt P61026: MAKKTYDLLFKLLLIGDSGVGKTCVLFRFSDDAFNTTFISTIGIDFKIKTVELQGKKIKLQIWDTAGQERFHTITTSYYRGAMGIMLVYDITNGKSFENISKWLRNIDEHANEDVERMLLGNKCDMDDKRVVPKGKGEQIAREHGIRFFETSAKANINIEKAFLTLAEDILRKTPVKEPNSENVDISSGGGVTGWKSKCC
UniProt P61006: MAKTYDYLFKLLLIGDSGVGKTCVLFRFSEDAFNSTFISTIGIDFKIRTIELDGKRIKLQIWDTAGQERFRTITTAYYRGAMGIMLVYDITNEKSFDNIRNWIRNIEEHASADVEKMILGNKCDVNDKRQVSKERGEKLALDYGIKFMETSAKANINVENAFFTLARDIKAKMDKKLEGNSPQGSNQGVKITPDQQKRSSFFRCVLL

Target: T1, SopD-FLAGBirA* (S. Typhimurium SL1344) (UniProt P40722)
T1 sequence: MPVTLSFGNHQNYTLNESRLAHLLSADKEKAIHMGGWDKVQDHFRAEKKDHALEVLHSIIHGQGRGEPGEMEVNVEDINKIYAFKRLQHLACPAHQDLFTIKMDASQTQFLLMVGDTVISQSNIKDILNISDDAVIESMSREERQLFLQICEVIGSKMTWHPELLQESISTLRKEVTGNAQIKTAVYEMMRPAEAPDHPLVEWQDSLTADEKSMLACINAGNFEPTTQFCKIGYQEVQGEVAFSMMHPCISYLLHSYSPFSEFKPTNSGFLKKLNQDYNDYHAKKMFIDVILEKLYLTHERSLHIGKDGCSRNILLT
Assay: affinity purification with mass spectrometry; anti-FLAG M2 agarose beads on lysate of Flp-In T-REx 293 cells stably expressing SopD-FLAGBirA*; lysis buffer 50 mM HEPES-NaOH pH 8.0, 100 mM KCl, 2 mM EDTA, 0.1% NP40, 10% glycerol; 2 h at 4 °C; controls: cells expressing FlagBirA* alone; SAINT, high confidence BFDR≤0.01

Substance | binding
Rab10 (endogenous) (from UniProt P61026 1-200) | binds
Rab8A (endogenous) (from UniProt P61006 1-207) | binds

Results are given in words; binding and its absence hold for the method and conditions named. Binding seen in cells or lysates may run through a third protein. A yes stands for co-enrichment or nearness to the bait. Other partners may have been found. Tags and fused reporters may be left off the sequences shown.
